Measurements published in PMC3712580.
No constants are given. Whether binding was seen depends on the method and setting. Binding seen in cells or lysates may run through a third protein. Some binding calls cover weakened binding; strength is not graded here.

By UniProt entry, the sequences of proteins in these tests, tags left out.
UniProt Q04206: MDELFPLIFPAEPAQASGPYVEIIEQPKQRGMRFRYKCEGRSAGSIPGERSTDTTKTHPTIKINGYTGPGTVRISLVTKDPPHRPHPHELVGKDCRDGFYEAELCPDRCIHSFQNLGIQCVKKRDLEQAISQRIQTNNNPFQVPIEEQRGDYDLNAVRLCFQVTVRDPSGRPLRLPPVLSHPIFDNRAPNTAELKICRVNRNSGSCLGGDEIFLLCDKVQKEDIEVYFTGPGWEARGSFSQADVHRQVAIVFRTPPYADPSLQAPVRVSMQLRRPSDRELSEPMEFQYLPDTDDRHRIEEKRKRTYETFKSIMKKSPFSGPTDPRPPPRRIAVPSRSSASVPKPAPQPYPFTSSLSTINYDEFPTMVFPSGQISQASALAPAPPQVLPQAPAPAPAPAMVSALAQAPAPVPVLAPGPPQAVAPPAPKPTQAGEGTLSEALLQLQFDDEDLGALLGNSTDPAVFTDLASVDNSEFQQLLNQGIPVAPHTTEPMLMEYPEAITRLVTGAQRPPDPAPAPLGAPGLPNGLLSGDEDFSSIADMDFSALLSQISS
UniProt O43707: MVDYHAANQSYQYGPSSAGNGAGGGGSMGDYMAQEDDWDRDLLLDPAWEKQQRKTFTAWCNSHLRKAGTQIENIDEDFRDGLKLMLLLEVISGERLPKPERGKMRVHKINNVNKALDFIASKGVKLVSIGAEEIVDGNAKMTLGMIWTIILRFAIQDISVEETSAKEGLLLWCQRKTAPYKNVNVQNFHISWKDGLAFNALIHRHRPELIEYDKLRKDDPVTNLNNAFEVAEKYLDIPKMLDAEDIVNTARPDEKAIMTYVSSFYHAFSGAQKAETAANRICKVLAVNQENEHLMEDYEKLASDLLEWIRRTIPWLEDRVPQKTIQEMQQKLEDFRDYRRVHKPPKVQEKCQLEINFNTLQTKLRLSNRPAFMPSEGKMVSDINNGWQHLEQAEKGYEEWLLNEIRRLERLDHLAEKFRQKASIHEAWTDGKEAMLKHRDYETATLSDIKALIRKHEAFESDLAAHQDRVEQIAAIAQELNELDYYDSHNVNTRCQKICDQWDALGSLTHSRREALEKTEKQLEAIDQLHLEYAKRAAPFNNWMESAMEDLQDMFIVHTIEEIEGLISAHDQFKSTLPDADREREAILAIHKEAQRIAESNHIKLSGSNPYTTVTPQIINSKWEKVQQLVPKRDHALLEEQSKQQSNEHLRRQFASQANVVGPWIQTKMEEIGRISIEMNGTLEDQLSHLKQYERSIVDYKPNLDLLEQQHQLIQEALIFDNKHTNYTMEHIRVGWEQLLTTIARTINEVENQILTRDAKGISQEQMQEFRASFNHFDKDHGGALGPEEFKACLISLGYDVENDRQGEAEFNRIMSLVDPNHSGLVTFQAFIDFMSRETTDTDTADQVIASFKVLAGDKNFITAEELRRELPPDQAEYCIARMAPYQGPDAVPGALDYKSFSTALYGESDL

Target: RelA/p65 subunit of the nuclear factor-kB (NF-kB) (human (endogenous in HEK293T)) (UniProt Q04206)
Experiment: co-IP; RelA/p65 immunoprecipitated with agarose-conjugated anti-RelA/p65 antibody (sc-8008 AC) from precleared cytoplasm extracts of HEK293T cells expressing MYC-ACTN4Fl, overnight incubation; immunoblotting with anti-MYC and anti-RelA/p65

- binding: binds
Substance: Alpha-actinin 4 (ACTN4), full-length, with MYC-tag at the N-terminus (from UniProt O43707 1-911)
